{"sequences": {"note": "Chains of the proteins cited; added tags and fusions are not shown. Residues count along the entry.", "UniProt Q08499, 1-673 isoform Q08499-2": "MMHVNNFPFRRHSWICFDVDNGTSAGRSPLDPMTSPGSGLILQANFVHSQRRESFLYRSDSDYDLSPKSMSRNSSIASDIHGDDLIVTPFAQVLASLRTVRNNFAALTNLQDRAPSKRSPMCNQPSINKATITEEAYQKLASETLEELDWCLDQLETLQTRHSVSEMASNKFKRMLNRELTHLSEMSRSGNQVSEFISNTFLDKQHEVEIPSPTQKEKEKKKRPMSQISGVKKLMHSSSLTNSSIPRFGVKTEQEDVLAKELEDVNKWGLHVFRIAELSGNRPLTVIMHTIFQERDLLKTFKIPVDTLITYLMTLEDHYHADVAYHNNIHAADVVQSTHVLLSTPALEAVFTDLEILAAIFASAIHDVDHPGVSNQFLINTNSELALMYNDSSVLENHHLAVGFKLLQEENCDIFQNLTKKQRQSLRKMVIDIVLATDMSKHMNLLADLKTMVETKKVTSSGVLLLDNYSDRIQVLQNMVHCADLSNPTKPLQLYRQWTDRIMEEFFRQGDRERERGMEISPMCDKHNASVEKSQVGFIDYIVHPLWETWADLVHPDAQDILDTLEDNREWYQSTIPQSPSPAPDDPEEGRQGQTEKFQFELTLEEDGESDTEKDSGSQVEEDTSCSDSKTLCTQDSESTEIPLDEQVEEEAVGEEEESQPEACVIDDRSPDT"}, "source": "patent US8497380B2", "about": "“Substituted acetophenones useful as PDE4 inhibitors” (Leo Pharma A/S, priority 2006, dated 2013)", "note": "Some entries share one result that the patent states for a list of compounds."}
{"biological_target": "Human recombinant PDE4 (Gene bank accession no NM—006203) (Homo sapiens, UniProt Q08499)", "assay": "PDE4 Assay", "type": "biochemical", "conditions": "50% inhibition of substrate (cAMP) cleavage; 1 hour incubation; test compound up to 10 uM; SPA beads"}
{"smiles": "COc1ccc(C(=O)Cc2c(Cl)cncc2Cl)c(O)c1OC", "note": "[Compound 101, 2-(3,5-Dichloro-pyridin-4-yl)-1-(2-hydroxy-3,4-dimethoxy-phenyl)-ethanone]", "−log IC50 (M)": "above 6 M"}
{"smiles": "C=CCOc1c(C(=O)Cc2c(Cl)cncc2Cl)ccc(OC)c1O", "note": "[Compound 103, 1-(2-Allyloxy-3-hydroxy-4-methoxy-phenyl)-2-(3,5-dichloro-pyridin-4-yl)-ethanone]", "−log IC50 (M)": "above 6 M"}
{"smiles": "CCOc1c(OC)ccc(C(=O)Cc2c(Cl)cncc2Cl)c1OCC", "note": "[Compound 104, 2-(3,5-Dichloro-pyridin-4-yl)-1-(2,3-diethoxy-4-methoxy-phenyl)-ethanone]", "−log IC50 (M)": "above 6 M"}
{"smiles": "C=CCOc1c(OC)ccc(C(=O)Cc2c(Cl)cncc2Cl)c1OCC=C", "note": "[Compound 106, 1-(2,3-Bis-allyloxy-4-methoxy-phenyl)-2-(3,5-dichloro-pyridin-4-yl)-ethanone]", "−log IC50 (M)": "above 6 M"}
{"smiles": "COc1ccc(C(=O)Cc2c(Cl)cncc2Cl)c(OC(F)F)c1OC(F)F", "note": "[Compound 107, 1-(2,3-Bis-difluoromethoxy-4-methoxy-phenyl)-2-(3,5-dichloro-pyridin-4-yl)-ethanone]", "−log IC50 (M)": "above 6 M"}
{"smiles": "COc1ccc(C(=O)Cc2c(Cl)cncc2Cl)c(OCc2cc(C)on2)c1OC", "note": "[Compound 108, 2-(3,5-Dichloro-pyridin-4-yl)-1-[3,4-dimethoxy-2-(5-methyl-isoxazol-3-ylmethoxy)-phenyl]-ethanone]", "−log IC50 (M)": "above 6 M"}
{"smiles": "COCCOc1c(C(=O)Cc2c(Cl)cncc2Cl)ccc(OC)c1OC", "note": "[Compound 109, 2-(3,5-Dichloro-pyridin-4-yl)-1-[3,4-dimethoxy-2-(2-methoxy-ethoxy)-phenyl]-ethanone]", "−log IC50 (M)": "above 6 M"}
{"smiles": "CC#CCOc1c(C(=O)Cc2c(Cl)cncc2Cl)ccc(OC)c1OC", "note": "[Compound 110, 1-(2-But-2-ynyloxy-3,4-dimethoxy-phenyl)-2-(3,5-dichloro-pyridin-4-yl)-ethanone]", "−log IC50 (M)": "above 6 M"}
{"smiles": "COc1ccc(C(=O)Cc2c(Cl)cncc2Cl)c(OCC=C(C)C)c1OC", "note": "[Compound 111, 2-(3,5-Dichloro-pyridin-4-yl)-1-[3,4-dimethoxy-2-(3-methyl-but-2-enyloxy)-phenyl]-ethanone]", "−log IC50 (M)": "above 6 M"}
{"smiles": "C=CCOc1c(C(=O)Cc2c(Cl)cncc2Cl)ccc(OC)c1OC", "note": "[Compound 114, 1-(2-Allyloxy-3,4-dimethoxy-phenyl)-2-(3,5-dichloro-pyridin-4-yl)-ethanone]", "−log IC50 (M)": "above 6 M"}
{"smiles": "COc1ccc(C(=O)Cc2c(Cl)cncc2Cl)c(OCc2nc3ccccc3o2)c1OC", "note": "[Compound 115, 1-[2-(Benzooxazol-2-ylmethoxy)-3,4-dimethoxy-phenyl]-2-(3,5-dichloro-pyridin-4-yl)-ethanone]", "−log IC50 (M)": "above 6 M"}
{"smiles": "COc1ccc(C(=O)Cc2c(Cl)cncc2Cl)c(OCc2csc(C)n2)c1OC", "note": "[Compound 116, 2-(3,5-Dichloro-pyridin-4-yl)-1-[3,4-dimethoxy-2-(2-methyl-thiazol-4-ylmethoxy)-phenyl]-ethanone]", "−log IC50 (M)": "above 6 M"}
{"smiles": "COc1ccc(C(=O)Cc2c(Cl)cncc2Cl)c(OCc2nnc(C3CC3)s2)c1OC", "note": "[Compound 117]", "−log IC50 (M)": "above 6 M"}
{"smiles": "COc1ccc(C(=O)Cc2c(Cl)cncc2Cl)c(OCc2ncon2)c1OC", "note": "[Compound 118, 2-(3,5-Dichloro-pyridin-4-yl)-1-[3,4-dimethoxy-2-([1,2,4]oxadiazol-3-ylmethoxy)-phenyl]-ethanone]", "−log IC50 (M)": "above 6 M"}
{"smiles": "CCOC(=O)COc1c(C(=O)Cc2c(Cl)cncc2Cl)ccc(OC)c1OC", "note": "[Compound 119, {6-[2-(3,5-Dichloro-pyridin-4-yl)-acetyl]-2,3-dimethoxy-phenoxy}-acetic acid ethyl ester]", "−log IC50 (M)": "above 6 M"}
{"smiles": "COc1ccc(C(=O)Cc2c(Cl)cncc2Cl)c(OCCc2ccc(Cl)cc2)c1OC", "note": "[Compound 120, 1-{2-[2-(4-Chloro-phenyl)-ethoxy]-3,4-dimethoxy-phenyl}-2-(3,5-dichloro-pyridin-4-yl)-ethanone]", "−log IC50 (M)": "above 6 M"}
{"smiles": "COc1ccc(C(=O)Cc2c(Cl)cncc2Cl)c(OCc2ccc(Cl)s2)c1OC", "note": "[Compound 121, 1-[2-(5-Chloro-thiophen-2-ylmethoxy)-3,4-dimethoxy-phenyl]-2-(3,5-dichloro-pyridin-4-yl)-ethanone]", "−log IC50 (M)": "above 6 M"}
{"smiles": "COc1ccc(C(=O)Cc2c(Cl)cncc2Cl)c(OCCOc2ccccc2)c1OC", "note": "[Compound 122, 2-(3,5-Dichloro-pyridin-4-yl)-1-[3,4-dimethoxy-2-(2-phenoxy-ethoxy)-phenyl]-ethanone]", "−log IC50 (M)": "above 6 M"}
{"smiles": "COc1ccc(C(=O)Cc2c(Cl)cncc2Cl)c(OCCc2ccc(C)cc2)c1OC", "note": "[Compound 123, 2-(3,5-Dichloro-pyridin-4-yl)-1-[3,4-dimethoxy-2-(2-p-tolyl-ethoxy)-phenyl]-ethanone]", "−log IC50 (M)": "above 6 M"}
{"smiles": "COc1cccc(CCOc2c(C(=O)Cc3c(Cl)cncc3Cl)ccc(OC)c2OC)c1", "note": "[Compound 125, 2-(3,5-Dichloro-pyridin-4-yl)-1-{3,4-dimethoxy-2-[2-(3-methoxy-phenyl)-ethoxy]-phenyl}-ethanone]", "−log IC50 (M)": "above 6 M"}
{"smiles": "COc1ccc(CCOc2c(C(=O)Cc3c(Cl)cncc3Cl)ccc(OC)c2OC)cc1", "note": "[Compound 126, 2-(3,5-Dichloro-pyridin-4-yl)-1-{3,4-dimethoxy-2-[2-(4-methoxy-phenyl)-ethoxy]-phenyl}-ethanone]", "−log IC50 (M)": "above 6 M"}
{"smiles": "COc1ccc(C(=O)Cc2c(Cl)cncc2Cl)c(OCCc2cccc(Br)c2)c1OC", "note": "[Compound 127, 1-{2-[2-(3-Bromo-phenyl)-ethoxy]-3,4-dimethoxy-phenyl}-2-(3,5-dichloro-pyridin-4-yl)-ethanone]", "−log IC50 (M)": "above 6 M"}
{"smiles": "COc1ccccc1CCOc1c(C(=O)Cc2c(Cl)cncc2Cl)ccc(OC)c1OC", "note": "[Compound 128, 2-(3,5-Dichloro-pyridin-4-yl)-1-{3,4-dimethoxy-2-[2-(2-methoxy-phenyl)-ethoxy]-phenyl}-ethanone]", "−log IC50 (M)": "above 6 M"}
{"smiles": "COc1ccc(C(=O)Cc2c(Cl)cncc2Cl)c(OCCc2ccc(F)cc2)c1OC", "note": "[Compound 129, 2-(3,5-Dichloro-pyridin-4-yl)-1-{2-[2-(4-fluoro-phenyl)-ethoxy]-3,4-dimethoxy-phenyl}-ethanone]", "−log IC50 (M)": "above 6 M"}
{"smiles": "COc1ccc(C(=O)Cc2c(Cl)cncc2Cl)c(OCCc2ccccc2F)c1OC", "note": "[Compound 130, 2-(3,5-Dichloro-pyridin-4-yl)-1-(2-[2-(2-fluoro-phenyl)-ethoxy)-3,4-dimethoxy-phenyl]-ethanone]", "−log IC50 (M)": "above 6 M"}
{"smiles": "COc1ccc(CCOc2c(C(=O)Cc3c(Cl)cncc3Cl)ccc(OC)c2OC)cc1OC", "note": "[Compound 131, 2-(3,5-Dichloro-pyridin-4-yl)-1-{2-[2-(3,4-dimethoxy-phenyl)-ethoxy]-3,4-dimethoxy-phenyl}-ethanone]", "−log IC50 (M)": "above 6 M"}
{"smiles": "COc1ccc(C(=O)Cc2c(Cl)cncc2Cl)c(OCC(=O)OCc2ccccc2)c1OC", "note": "[Compound 132, {6-[2-(3,5-Dichloro-pyridin-4-yl)-acetyl]-2,3-dimethoxy-phenoxy}-acetic acid benzyl ester]", "−log IC50 (M)": "above 6 M"}
{"smiles": "COc1ccc(C(=O)Cc2c(Cl)cncc2Cl)c(OCC(=O)OC(C)C)c1OC", "note": "[Compound 133, {6-[2-(3,5-Dichloro-pyridin-4-yl)-acetyl]-2,3-dimethoxy-phenoxy}-acetic acid isopropyl ester]", "−log IC50 (M)": "above 6 M"}
{"smiles": "COC(=O)c1cccc(COc2c(C(=O)Cc3c(Cl)cncc3Cl)ccc(OC)c2OC)c1", "note": "[Compound 134, 3-{6-[2-(3,5-Dichloro-pyridin-4-yl)-acetyl]-2,3-dimethoxy-phenoxymethyl}-benzoic acid methyl ester]", "−log IC50 (M)": "above 6 M"}
{"smiles": "COc1ccc(C(=O)Cc2c(Cl)cncc2Cl)c(OCCC(C)C)c1OC", "note": "[Compound 135, 2-(3,5-Dichloro-pyridin-4-yl)-1-(3,4-dimethoxy-2-(3-methyl-butoxy)-phenyl)-ethanone]", "−log IC50 (M)": "above 6 M"}
{"smiles": "C=CCCOc1c(C(=O)Cc2c(Cl)cncc2Cl)ccc(OC)c1OC", "note": "[Compound 137, 1-(2-But-3-enyloxy-3,4-dimethoxy-phenyl)-2-(3,5-dichloro-pyridin-4-yl)-ethanone]", "−log IC50 (M)": "above 6 M"}
{"smiles": "C=CCCCOc1c(C(=O)Cc2c(Cl)cncc2Cl)ccc(OC)c1OC", "note": "[Compound 138, 2-(3,5-Dichloro-pyridin-4-yl)-1-(3,4-dimethoxy-2-pent-4-enyloxy-phenyl)-ethanone]", "−log IC50 (M)": "above 6 M"}
{"smiles": "CCCOc1c(C(=O)Cc2c(Cl)cncc2Cl)ccc(OC)c1OC", "note": "[Compound 139, 2-(3,5-Dichloro-pyridin-4-yl)-1-(3,4-dimethoxy-2-propoxy-phenyl)-ethanone]", "−log IC50 (M)": "above 6 M"}
{"smiles": "CCCCOc1c(C(=O)Cc2c(Cl)cncc2Cl)ccc(OC)c1OC", "note": "[Compound 140, 1-(2-Butoxy-3,4-dimethoxy-phenyl)-2-(3,5-dichloro-pyridin-4-yl)-ethanone]", "−log IC50 (M)": "above 6 M"}
{"smiles": "COc1ccc(C(=O)Cc2c(Cl)cncc2Cl)c(OCC(C)C)c1OC", "note": "[Compound 141, 2-(3,5-Dichloro-pyridin-4-yl)-1-(2-isobutoxy-3,4-dimethoxy-phenyl)-ethanone]", "−log IC50 (M)": "above 6 M"}
{"smiles": "CCOC(=O)CCCOc1c(C(=O)Cc2c(Cl)cncc2Cl)ccc(OC)c1OC", "note": "[Compound 142, 4-{6-[2-(3,5-Dichloro-pyridin-4-yl)-acetyl]-2,3-dimethoxy-phenoxy}-butyric acid ethyl ester]", "−log IC50 (M)": "above 6 M"}
{"smiles": "COc1ccc(C(=O)Cc2c(Cl)cncc2Cl)c(OCc2ccc(C)cc2)c1OC", "note": "[Compound 143, 2-(3,5-Dichloro-pyridin-4-yl)-1-[3,4-dimethoxy-2-(4-methyl-benzyloxy)-phenyl]-ethanone]", "−log IC50 (M)": "above 6 M"}
{"smiles": "COc1ccc(C(=O)Cc2c(Cl)cncc2Cl)c(OCc2cccc(Cl)c2)c1OC", "note": "[Compound 144, 1-[2-(3-Chloro-benzyloxy)-3,4-dimethoxy-phenyl]-2-(3,5-dichloro-pyridin-4-yl)-ethanone]", "−log IC50 (M)": "above 6 M"}
{"smiles": "COc1ccc(C(=O)Cc2c(Cl)cncc2Cl)c(OCCCOc2ccccc2)c1OC", "note": "[Compound 145, 2-(3,5-Dichloro-pyridin-4-yl)-1-[3,4-dimethoxy-2-(3-phenoxy-propoxy)-phenyl]-ethanone]", "−log IC50 (M)": "above 6 M"}
